Molecules are shown by their SMILES. The list shows a part of the results. Most values lie within the scatter of the assay; repeated measurements hardly agree.

Protein sequences, listed by entry. Tags and fused reporters are not part of them.
UniProt Q15717, whole entry: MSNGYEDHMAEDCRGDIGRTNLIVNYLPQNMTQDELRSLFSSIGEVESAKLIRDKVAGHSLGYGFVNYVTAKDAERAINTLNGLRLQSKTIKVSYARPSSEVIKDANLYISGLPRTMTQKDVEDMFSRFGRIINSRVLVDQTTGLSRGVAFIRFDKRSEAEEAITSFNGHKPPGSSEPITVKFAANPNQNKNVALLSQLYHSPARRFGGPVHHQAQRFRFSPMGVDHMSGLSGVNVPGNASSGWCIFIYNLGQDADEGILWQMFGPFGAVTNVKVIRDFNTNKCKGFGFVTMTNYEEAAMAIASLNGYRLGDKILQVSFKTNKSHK

The test has as its target HuR (ELAVL1) - TNFalpha ARE RNA complex (UniProt Q15717). The test is described as follows: AlphaScreen HuR-RNA complex signal Z-score relative to positive (Bi-TNF, DMSO) controls (Z-score (SD units of positive control)); higher = more complex signal. The conditions noted are these: screen stage: primary screen; compound concentration: 25 nM.
For the molecule `CN(C)CCN(Cc1cccs1)c1ccccn1`, the “AlphaScreen HuR-RNA complex signal Z-score” value amounted to 1.48. For `COc1ccc2c(c1)OCc1c-2oc2cc(OC)ccc12`, the “AlphaScreen HuR-RNA complex signal Z-score” value is 2.37. For `COc1ccc([C@H]2COc3c(ccc(O)c3OC)C2)c(OC)c1O`, the “AlphaScreen HuR-RNA complex signal Z-score” value came to 2.42.

Regarding `O=c1c(O)cccc2cc(O)c(O)c(O)c12`, the “AlphaScreen HuR-RNA complex signal Z-score” value is -4.89. For `Cc1ccc(S(=O)(=O)NC(=O)NN2CC3CCCC3C2)cc1` (stereo unspecified), the “AlphaScreen HuR-RNA complex signal Z-score” value was 2.25. The figure for `COc1ccc(-c2cc(=O)c3c(O)cc(O)cc3o2)cc1` is 2.82.

As to `CC(=O)N[C@@H](CC(=O)N[C@@H](CCC(=O)O)C(=O)O)C(=O)O`, the “AlphaScreen HuR-RNA complex signal Z-score” value worked out at 2.86.

Turning to `Nc1nc(=O)c2[nH]c(=O)cnc2[nH]1`, the “AlphaScreen HuR-RNA complex signal Z-score” value stood at 1.13. In the case of `O=C(O)c1cc2ccccc2[nH]1`, the “AlphaScreen HuR-RNA complex signal Z-score” value came to 4.04. Consider `O=c1cc(-c2ccccc2)oc2cc(O)c(O)cc12`, for which the “AlphaScreen HuR-RNA complex signal Z-score” value turned out to be 0.111. For the molecule `CCn1cc(C(=O)O)c(=O)c2cnc(N3CCNCC3)nc21`, the “AlphaScreen HuR-RNA complex signal Z-score” value is 3.49. In the case of `COc1cc2nc(N3CCN(C(=O)c4ccco4)CC3)nc(N)c2cc1OC`, the “AlphaScreen HuR-RNA complex signal Z-score” value was determined as 5.49. For the molecule `NCCS(=O)(=O)O`, the “AlphaScreen HuR-RNA complex signal Z-score” value was 0.588. Regarding `CC(=O)Oc1ccc2c(c1C(C)C)CCC1C(C)(C)CCC[C@]21C` (stereo partly specified), the “AlphaScreen HuR-RNA complex signal Z-score” value stood at 2.56. As for `CCN(CC)CCNC(=O)c1cc(S(C)(=O)=O)ccc1OC`, the “AlphaScreen HuR-RNA complex signal Z-score” value is 1.04. Regarding `O=C(CCCN1CC=C(n2c(=O)[nH]c3ccccc32)CC1)c1ccc(F)cc1`, the “AlphaScreen HuR-RNA complex signal Z-score” value was found to be 0.552. For the molecule `Oc1c(I)cc(I)c2cccnc12`, the “AlphaScreen HuR-RNA complex signal Z-score” value was -3.49. Take `C#CCN(C)Cc1ccccc1`: the “AlphaScreen HuR-RNA complex signal Z-score” value is 2.95. In the case of `CC(=O)O[C@H]1CC[C@@]2(C)[C@H](CC[C@@H]3[C@@H]2CC[C@]2(C)[C@@H]4[C@H](C[C@@H]32)O[C@]2(CC[C@@H](C)CO2)[C@H]4C)C1`, the “AlphaScreen HuR-RNA complex signal Z-score” value amounted to 1.61. The figure for `CCCCCC(C)N` (stereo unspecified) is -1.31. Take `COc1ccc2cc(CCC(C)=O)ccc2c1`: the “AlphaScreen HuR-RNA complex signal Z-score” value turned out to be 0.458. Take `O=C(O)CCC(=O)OC[C@@H](NC(=O)C(Cl)Cl)[C@H](O)c1ccc([N+](=O)[O-])cc1`: the “AlphaScreen HuR-RNA complex signal Z-score” value is -3.14. Under `CCn1cc(C(=O)O)c(=O)c2ccc(C)nc21` stands -0.41.

Turning to `CCOc1ccc(C(=O)c2cc(O)c(OC)c(OC)c2O)cc1`, the “AlphaScreen HuR-RNA complex signal Z-score” value turned out to be 1.58. For the molecule `COc1ccc(-c2oc3c(CC=C(C)C)c(O[C@@H]4O[C@H](CO)[C@@H](O)[C@H](O)[C@H]4O)cc(O)c3c(=O)c2O[C@@H]2O[C@@H](C)[C@H](O)[C@@H](O)[C@H]2O)cc1`, the “AlphaScreen HuR-RNA complex signal Z-score” value came out at 0.949. Turning to `C[C@H]1[C@@H](O)O[C@@H]2O[C@@]3(C)CC[C@H]4[C@H](C)CC[C@@H]1[C@@]24OO3`, the “AlphaScreen HuR-RNA complex signal Z-score” value was found to be 2.16. For `CCN(Cc1ccncc1)C(=O)C(CO)c1ccccc1` (stereo unspecified), the “AlphaScreen HuR-RNA complex signal Z-score” value is -3.06. Consider `Cc1ncc([N+](=O)[O-])n1CCO`, for which the “AlphaScreen HuR-RNA complex signal Z-score” value was 3.02. Take `CCN(CC)CC#CCOC(=O)C(O)(c1ccccc1)C1CCCCC1` (stereo unspecified): the “AlphaScreen HuR-RNA complex signal Z-score” value stood at 2.81. Turning to `CC(C)CCC[C@@H](C)[C@H]1CC[C@H]2[C@@H]3CC=C4CC(=O)CC[C@]4(C)[C@H]3CC[C@]12C`, the “AlphaScreen HuR-RNA complex signal Z-score” value stood at 1.59.

For the molecule `CC(=O)OC1CCC23CC1(C)CCC2C(C)(C)CC3OC(C)=O` (stereo unspecified), the “AlphaScreen HuR-RNA complex signal Z-score” value was found to be 2.02.

As to `C=CC[C@@H]1/C=C(\C)C[C@H](C)C[C@H](OC)[C@H]2O[C@@](O)(C(=O)C(=O)N3CCCC[C@H]3C(=O)O[C@H](/C(C)=C/[C@@H]3CC[C@@H](O)[C@H](OC)C3)[C@H](C)[C@@H](O)CC1=O)[C@H](C)C[C@@H]2OC`, the “AlphaScreen HuR-RNA complex signal Z-score” value worked out at 1.07. Consider `NC[C@H]1O[C@H](O[C@H]2[C@H](O[C@@H]3O[C@H](CO)[C@@H](O)[C@H]3O)[C@@H](O)[C@H](N)C[C@@H]2N)[C@H](N)[C@@H](O)[C@@H]1O`, for which the “AlphaScreen HuR-RNA complex signal Z-score” value amounted to 1.1. For the molecule `COc1ccc2[nH]cc(CCNC(C)=O)c2c1`, the “AlphaScreen HuR-RNA complex signal Z-score” value came out at 0.126. With `O=C([O-])c1ccccc1O.[Na+]`, the “AlphaScreen HuR-RNA complex signal Z-score” value turned out to be 3.07. Under `CCCC(=O)Nc1ncnc2c1ncn2[C@@H]1O[C@@H]2COP(=O)(O)O[C@H]2[C@H]1OC(=O)CCC` stands 1.57. For the molecule `CC(=O)N[C@@H](CCC(=O)O)C(=O)O`, the “AlphaScreen HuR-RNA complex signal Z-score” value was 1.6. The figure for `CN1CCCC(n2nc(Cc3ccc(Cl)cc3)c3ccccc3c2=O)CC1` (stereo unspecified) is 3.1; for `O=C(CNC(=O)c1ccc(Cl)cc1)NO` it is 0.581.

`NC(=O)N/N=C/c1ccc([N+](=O)[O-])o1`: the “AlphaScreen HuR-RNA complex signal Z-score” value worked out at 5.95.

Turning to `CO[C@@H]1[C@@H](OC(N)=O)[C@@H](O)[C@H](Oc2ccc3c(O)c(NC(=O)c4ccc(O)c(CC=C(C)C)c4)c(=O)oc3c2C)OC1(C)C`, the “AlphaScreen HuR-RNA complex signal Z-score” value is -5.66. Take `O=C(NCO)c1cccnc1`: the “AlphaScreen HuR-RNA complex signal Z-score” value worked out at 2.07. Take `CC(=O)Oc1cccc(O)c1`: the “AlphaScreen HuR-RNA complex signal Z-score” value is -0.347. Regarding `C/C1=C\CCC(=O)C2CC(C)(C)C2CC1` (stereo unspecified), the “AlphaScreen HuR-RNA complex signal Z-score” value came out at 2.02. With `CCN1CCN(C(=O)N[C@@H](C(=O)N[C@@H]2C(=O)N3[C@@H]2SC(C)(C)[C@@H]3C(=O)O)c2ccccc2)C(=O)C1=O`, the “AlphaScreen HuR-RNA complex signal Z-score” value was -0.592. Take `OC[C@H]1O[C@@H](Oc2ccc(O)cc2)[C@H](O)[C@@H](O)[C@@H]1O`: the “AlphaScreen HuR-RNA complex signal Z-score” value was 1.6. Under `Nc1ccc(S(=O)(=O)c2ccc(N)cc2)cc1` stands -2.32.

In the case of `OCCN1CCN(CCCN2c3ccccc3Sc3ccc(Cl)cc32)CC1`, the “AlphaScreen HuR-RNA complex signal Z-score” value amounted to 1.22. On to `CN(C)CCc1c[nH]c2ccc(Cn3cncn3)cc12`, for which the “AlphaScreen HuR-RNA complex signal Z-score” value is -6.55.

Take `COc1cc(/C=C/C(=O)O)cc(OC)c1OC`: the “AlphaScreen HuR-RNA complex signal Z-score” value came to 2.22. Under `CC1(C)OC(=O)NC1=O` stands -2.88; under `CCC[C@H](N[C@@H](C)C(=O)N1[C@H](C(=O)O)C[C@@H]2CCCC[C@@H]21)C(=O)OCC`, 1.79; under `Cn1nnnc1SCC1=C(C(=O)O)N2C(=O)[C@@H](NC(=O)[C@H](O)c3ccccc3)[C@H]2SC1`, 1.01. Take `COc1ccc(NS(=O)(=O)c2ccc(N)cc2)nn1`: the “AlphaScreen HuR-RNA complex signal Z-score” value is 1.59.

Take `Nc1ccc(C(=O)NCC(=O)O)cc1`: the “AlphaScreen HuR-RNA complex signal Z-score” value turned out to be 0.736. Take `NC(C(=O)O)C(O)C(=O)O` (stereo not drawn) [d,l-threo-3-HYDROXYASPARTIC ACID]: the “AlphaScreen HuR-RNA complex signal Z-score” value is -4.91. As for `CC(=O)Oc1cccc2c1C(=O)c1c(OC(C)=O)cc(C(=O)O)cc1C2=O`, the “AlphaScreen HuR-RNA complex signal Z-score” value amounted to 0.985. For `Cc1ncc(CSSCc2cnc(C)c(O)c2CO)c(CO)c1O`, the “AlphaScreen HuR-RNA complex signal Z-score” value was found to be 2.25. Under `COC(=O)C1=CO[C@@H](O[C@@H]2O[C@H](CO)[C@@H](O)[C@H](O)[C@H]2O)[C@@H]2[C@@H](C)[C@@H](O)C[C@H]12` stands 2.3.

Regarding `N[C@H]1C(O)O[C@H](CO)[C@@H](O)[C@@H]1O` (stereo partly specified), the “AlphaScreen HuR-RNA complex signal Z-score” value is -6.29. For the molecule `C=C1C[C@H]2[C@@H]3C=C(C)C4=CC(=O)CC[C@]4(C)[C@H]3CC[C@]2(C)[C@@]1(OC(C)=O)C(C)=O`, the “AlphaScreen HuR-RNA complex signal Z-score” value is 1.05.

(Values after the supplement of paper PMC3741180, “A Novel High Throughput Biochemical Assay to Evaluate the HuR Protein-RNA Complex Formation” (PLoS ONE, 2013).)
